Test results published in PMC5286483, “Effect of R119G Mutation on Human P5CR1 Dynamic Property and Enzymatic Activity” (BioMed Research International, 2017).
These are yes or no findings as the source states them, for the method shown. Some results given as binding are weak or reduced against the parent protein; the word gives no strength.

Target: T1, Human WT P5CR1 (pyrroline-5-carboxylate reductase 1) (human), P32322
T1 chain: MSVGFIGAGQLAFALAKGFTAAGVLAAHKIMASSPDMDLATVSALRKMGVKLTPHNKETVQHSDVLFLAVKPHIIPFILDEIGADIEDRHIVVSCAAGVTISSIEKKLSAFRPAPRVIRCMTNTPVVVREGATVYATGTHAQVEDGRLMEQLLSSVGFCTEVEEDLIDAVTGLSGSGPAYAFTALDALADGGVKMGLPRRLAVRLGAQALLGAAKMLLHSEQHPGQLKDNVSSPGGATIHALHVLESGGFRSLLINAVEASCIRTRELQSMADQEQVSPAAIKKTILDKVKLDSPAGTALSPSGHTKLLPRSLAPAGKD
Experiment: SEC; Superdex-200 column; WT P5CR1; buffer not stated; both purified
Conditions: remark: other sources report otherwise

binding: binds
B1: Human WT P5CR1 (pyrroline-5-carboxylate reductase 1), P32322 1-319 (enzyme)
chain: T1 chain
